Binding data for 5 substances are collected here from publication PMC12087091.

By UniProt entry, the sequences of proteins in these tests, tags left out. Where a name states a change or a piece, a line headed by the entry shows the natural chain unless it says otherwise.
UniProt P17174: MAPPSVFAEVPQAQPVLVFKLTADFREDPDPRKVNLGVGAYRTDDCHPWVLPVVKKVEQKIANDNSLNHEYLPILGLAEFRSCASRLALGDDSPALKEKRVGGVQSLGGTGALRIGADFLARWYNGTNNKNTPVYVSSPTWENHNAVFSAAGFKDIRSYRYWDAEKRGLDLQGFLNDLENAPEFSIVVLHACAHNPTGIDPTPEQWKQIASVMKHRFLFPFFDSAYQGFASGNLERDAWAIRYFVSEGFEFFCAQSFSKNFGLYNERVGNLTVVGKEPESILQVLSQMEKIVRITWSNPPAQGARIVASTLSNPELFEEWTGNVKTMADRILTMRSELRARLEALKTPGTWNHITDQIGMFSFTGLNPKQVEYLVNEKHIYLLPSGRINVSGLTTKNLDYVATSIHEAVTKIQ
UniProt P45974: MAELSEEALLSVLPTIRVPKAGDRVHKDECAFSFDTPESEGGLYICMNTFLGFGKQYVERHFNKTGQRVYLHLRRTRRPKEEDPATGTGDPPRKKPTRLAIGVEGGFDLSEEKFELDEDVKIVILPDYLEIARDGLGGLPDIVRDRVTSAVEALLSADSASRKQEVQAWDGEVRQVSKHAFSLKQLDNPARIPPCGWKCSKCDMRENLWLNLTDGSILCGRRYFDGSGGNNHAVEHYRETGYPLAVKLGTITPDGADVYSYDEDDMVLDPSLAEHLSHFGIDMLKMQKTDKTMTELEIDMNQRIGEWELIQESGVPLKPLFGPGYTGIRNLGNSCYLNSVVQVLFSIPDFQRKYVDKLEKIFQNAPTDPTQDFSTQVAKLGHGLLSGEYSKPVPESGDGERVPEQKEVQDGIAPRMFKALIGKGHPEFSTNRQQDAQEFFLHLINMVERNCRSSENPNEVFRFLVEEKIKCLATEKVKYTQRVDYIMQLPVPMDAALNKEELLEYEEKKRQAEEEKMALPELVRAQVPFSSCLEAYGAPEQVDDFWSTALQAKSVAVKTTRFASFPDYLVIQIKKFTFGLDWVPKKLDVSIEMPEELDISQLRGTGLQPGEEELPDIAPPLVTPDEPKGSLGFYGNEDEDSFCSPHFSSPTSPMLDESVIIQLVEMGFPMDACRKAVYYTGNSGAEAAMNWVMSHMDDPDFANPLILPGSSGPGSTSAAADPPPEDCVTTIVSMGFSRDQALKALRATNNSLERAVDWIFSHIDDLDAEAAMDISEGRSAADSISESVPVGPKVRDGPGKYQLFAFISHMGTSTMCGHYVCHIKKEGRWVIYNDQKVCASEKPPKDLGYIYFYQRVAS

Experiment [1] deals with T1, ANXA1, exogenous in 293T cells (UniProt P04083).
T1 sequence: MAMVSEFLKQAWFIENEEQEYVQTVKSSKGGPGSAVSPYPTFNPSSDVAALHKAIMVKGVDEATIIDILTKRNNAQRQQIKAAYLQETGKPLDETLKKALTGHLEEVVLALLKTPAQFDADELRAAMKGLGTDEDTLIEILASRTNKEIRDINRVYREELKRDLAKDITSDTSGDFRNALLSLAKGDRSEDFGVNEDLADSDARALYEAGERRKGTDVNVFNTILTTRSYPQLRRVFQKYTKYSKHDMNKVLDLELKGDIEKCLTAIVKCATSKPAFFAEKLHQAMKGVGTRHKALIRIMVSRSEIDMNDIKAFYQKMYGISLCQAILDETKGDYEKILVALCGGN
Briefly: co-IP; exogenous proteins expressed in 293T (HEK293T) cells, lysates, Western blot. A general note: In western blotting, separated proteins are transferred to a membrane and probed.

The target in experiment [2] is T2, Annexin A1 (ANXA1), endogenous (human (endogenous in HUCCT1 and HCCC9810)) (UniProt P04083).
T2 sequence: T1 sequence
Description: proximity ligation; NaveniFlex Cell MR PLA on fixed, permeabilised HUCCT1 and HCCC9810 cells, pairs of primary antibodies (ANXA1-USP5, ANXA1-GOT1, USP5-GOT1), Cy3 signal by confocal microscopy; for USP5-GOT1 vector against ANXA1 overexpression.

In experiment [3] the target is T2, Annexin A1 (ANXA1), endogenous (human (endogenous in HUCCT1 and HCCC9810)). Briefly: co-IP; endogenous proteins in HUCCT1 and HCCC9810 lysates, antibody-conjugated magnetic beads, Western blot; for USP5 with GOT1: IP with anti-USP5 or anti-GOT1, cells with sh-control or sh-ANXA1, MG132 10 uM 6 h.
The target in a further experiment is Flag-GOT1 (human) (UniProt P17174). Description: co-IP; Myc-USP5-C335A co-transfected with Flag-GOT1 in HUCCT1 cells.
The target of experiment [4] is Glutamic-oxaloacetic transaminase 1 (GOT1), endogenous (human (endogenous in HUCCT1 and HCCC9810)) (UniProt P17174). Description: proximity ligation; NaveniFlex Cell MR PLA on fixed, permeabilised HUCCT1 and HCCC9810 cells, pairs of primary antibodies (ANXA1-USP5, ANXA1-GOT1, USP5-GOT1), Cy3 signal by confocal microscopy; for USP5-GOT1 vector against ANXA1 overexpression.

Experiment [5] shares this target. Briefly: co-IP; endogenous proteins in HUCCT1 and HCCC9810 lysates, antibody-conjugated magnetic beads, Western blot; for USP5 with GOT1: IP with anti-USP5 or anti-GOT1, cells with sh-control or sh-ANXA1, MG132 10 uM 6 h.

No constants are given. Whether binding was seen depends on the method and setting. In cells and extracts the contact can be indirect. Some binding calls cover weakened binding; strength is not graded here.

As for “GOT1, exogenous in 293T cells (from UniProt P17174 1-413) (enzyme)”, the binding result in experiment [1] is given as “binds”.

On to “Glutamic-oxaloacetic transaminase 1 (GOT1), endogenous (from UniProt P17174 1-413) (enzyme)”, for which the binding entry in experiment [2] and in experiment [3] was “binds” throughout.

As to “Myc-USP5-C335A (from UniProt P45974 1-858) (enzyme)”, the binding result with Flag-GOT1 (human) was “no binding”.

Take “USP5, exogenous in 293T cells (from UniProt P45974 1-858) (enzyme)”: in experiment [1], the binding entry is on record as “binds”.

“Ubiquitin-specific protease 5 (USP5), endogenous (from UniProt P45974 1-858) (enzyme)”: the binding entry in experiment [4], in experiment [2], in experiment [5] and in experiment [3] was “binds” each time.
